In article PMC4132902 one finds binding data, which are given here for one molecule.

No constants are given. Whether binding was seen depends on the method and setting. Binding seen in cells or lysates may run through a third protein. Some binding calls cover weakened binding; strength is not graded here.

This test addresses T1, arrestin domain containing 3 (ARRDC3) (mouse (endogenous in hippocampus of Tg6799 and littermate mice)) (UniProt Q7TPQ9).
T1 sequence: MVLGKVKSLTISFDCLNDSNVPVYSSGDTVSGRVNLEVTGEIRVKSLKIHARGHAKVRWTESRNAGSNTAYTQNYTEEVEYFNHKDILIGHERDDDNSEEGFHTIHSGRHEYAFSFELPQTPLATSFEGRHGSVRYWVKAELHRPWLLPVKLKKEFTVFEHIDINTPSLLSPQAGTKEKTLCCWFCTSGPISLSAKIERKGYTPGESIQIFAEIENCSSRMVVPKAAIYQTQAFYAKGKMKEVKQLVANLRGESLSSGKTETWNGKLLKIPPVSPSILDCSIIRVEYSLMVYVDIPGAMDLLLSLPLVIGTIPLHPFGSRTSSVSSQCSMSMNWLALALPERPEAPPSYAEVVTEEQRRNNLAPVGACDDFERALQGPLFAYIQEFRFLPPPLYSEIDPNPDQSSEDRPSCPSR
The test is described as follows: co-IP; hippocampus protein samples (10 ug) of Tg6799 (MT) mice and littermate (LM) controls at 10 months of age; precipitated with polyclonal anti-ARRDC3 at 4°C overnight and protein A agarose, blotted with polyclonal anti-Sfpq; homogenization buffer 50 mM Tris-Cl pH 8.0, 150 mM NaCl, 5 mM EDTA, 1% Triton X-100.

B1: splicing factor, proline- and glutamine-rich (Sfpq) (protein, UniProt Q8VIJ6 1-699)
chain: MSRDRFRSRGGGGGGFHRRGGGGGRGGLHDFRSPPPGMGLNQNRGPMGPGPGGPKPPLPPPPPHQQQQQPPPQQPPPQQPPPHQQPPPHQPPHQQPPPPPQESKPVVPQGPGSAPGVSSAPPPAVSAPPANPPTTGAPPGPGPTPTPPPAVPSTAPGPPPPSTPSSGVSTTPPQTGGPPPPPAGGAGPGPKPGPGPGGPKGGKMPGGPKPGGGPGMGAPGGHPKPPHRGGGEPRGGRQHHAPYHQQHHQGPPPGGPGPRTEEKISDSEGFKANLSLLRRPGEKTYTQRCRLFVGNLPADITEDEFKRLFAKYGEPGEVFINKGKGFGFIKLESRALAEIAKAELDDTPMRGRQLRVRFATHAAALSVRNLSPYVSNELLEEAFSQFGPIERAVVIVDDRGRSTGKGIVEFASKPAARKAFERCSEGVFLLTTTPRPVIVEPLEQLDDEDGLPEKLAQKNPMYQKERETPPRFAQHGTFEYEYSQRWKSLDEMEKQQREQVEKNMKDAKDKLESEMEDAYHEHQANLLRQDLMRRQEELRRMEELHSQEMQKRKEMQLRQEEERRRREEEMMIRQREMEEQMRRQREESYSRMGYMDPRERDMRMGGGGTMNMGDPYGSGGQKFPPLGGGGGIGYEANPGVPPATMSGSMMGSDMRTERFGQGGAGPVGGQGPRGMGPGTPAGYGRGREEYEGPNKKPRF
As to B1, the binding entry was “binds”.
